Measurements from publication PMC10474297.
Results are given in words; binding and its absence hold for the method and conditions named. In cells and extracts the contact can be indirect. Some results given as binding are weak or reduced against the parent protein; the word gives no strength.

Sequences of proteins named here, by UniProt entry; tags and fusion partners are left off. A change or cut given only in a name is not applied to a line headed by its entry. A line that says so, or that is headed by a name, gives the form on record, which may keep a tag or linker. Residues count along the entry.
UniProt Q02224: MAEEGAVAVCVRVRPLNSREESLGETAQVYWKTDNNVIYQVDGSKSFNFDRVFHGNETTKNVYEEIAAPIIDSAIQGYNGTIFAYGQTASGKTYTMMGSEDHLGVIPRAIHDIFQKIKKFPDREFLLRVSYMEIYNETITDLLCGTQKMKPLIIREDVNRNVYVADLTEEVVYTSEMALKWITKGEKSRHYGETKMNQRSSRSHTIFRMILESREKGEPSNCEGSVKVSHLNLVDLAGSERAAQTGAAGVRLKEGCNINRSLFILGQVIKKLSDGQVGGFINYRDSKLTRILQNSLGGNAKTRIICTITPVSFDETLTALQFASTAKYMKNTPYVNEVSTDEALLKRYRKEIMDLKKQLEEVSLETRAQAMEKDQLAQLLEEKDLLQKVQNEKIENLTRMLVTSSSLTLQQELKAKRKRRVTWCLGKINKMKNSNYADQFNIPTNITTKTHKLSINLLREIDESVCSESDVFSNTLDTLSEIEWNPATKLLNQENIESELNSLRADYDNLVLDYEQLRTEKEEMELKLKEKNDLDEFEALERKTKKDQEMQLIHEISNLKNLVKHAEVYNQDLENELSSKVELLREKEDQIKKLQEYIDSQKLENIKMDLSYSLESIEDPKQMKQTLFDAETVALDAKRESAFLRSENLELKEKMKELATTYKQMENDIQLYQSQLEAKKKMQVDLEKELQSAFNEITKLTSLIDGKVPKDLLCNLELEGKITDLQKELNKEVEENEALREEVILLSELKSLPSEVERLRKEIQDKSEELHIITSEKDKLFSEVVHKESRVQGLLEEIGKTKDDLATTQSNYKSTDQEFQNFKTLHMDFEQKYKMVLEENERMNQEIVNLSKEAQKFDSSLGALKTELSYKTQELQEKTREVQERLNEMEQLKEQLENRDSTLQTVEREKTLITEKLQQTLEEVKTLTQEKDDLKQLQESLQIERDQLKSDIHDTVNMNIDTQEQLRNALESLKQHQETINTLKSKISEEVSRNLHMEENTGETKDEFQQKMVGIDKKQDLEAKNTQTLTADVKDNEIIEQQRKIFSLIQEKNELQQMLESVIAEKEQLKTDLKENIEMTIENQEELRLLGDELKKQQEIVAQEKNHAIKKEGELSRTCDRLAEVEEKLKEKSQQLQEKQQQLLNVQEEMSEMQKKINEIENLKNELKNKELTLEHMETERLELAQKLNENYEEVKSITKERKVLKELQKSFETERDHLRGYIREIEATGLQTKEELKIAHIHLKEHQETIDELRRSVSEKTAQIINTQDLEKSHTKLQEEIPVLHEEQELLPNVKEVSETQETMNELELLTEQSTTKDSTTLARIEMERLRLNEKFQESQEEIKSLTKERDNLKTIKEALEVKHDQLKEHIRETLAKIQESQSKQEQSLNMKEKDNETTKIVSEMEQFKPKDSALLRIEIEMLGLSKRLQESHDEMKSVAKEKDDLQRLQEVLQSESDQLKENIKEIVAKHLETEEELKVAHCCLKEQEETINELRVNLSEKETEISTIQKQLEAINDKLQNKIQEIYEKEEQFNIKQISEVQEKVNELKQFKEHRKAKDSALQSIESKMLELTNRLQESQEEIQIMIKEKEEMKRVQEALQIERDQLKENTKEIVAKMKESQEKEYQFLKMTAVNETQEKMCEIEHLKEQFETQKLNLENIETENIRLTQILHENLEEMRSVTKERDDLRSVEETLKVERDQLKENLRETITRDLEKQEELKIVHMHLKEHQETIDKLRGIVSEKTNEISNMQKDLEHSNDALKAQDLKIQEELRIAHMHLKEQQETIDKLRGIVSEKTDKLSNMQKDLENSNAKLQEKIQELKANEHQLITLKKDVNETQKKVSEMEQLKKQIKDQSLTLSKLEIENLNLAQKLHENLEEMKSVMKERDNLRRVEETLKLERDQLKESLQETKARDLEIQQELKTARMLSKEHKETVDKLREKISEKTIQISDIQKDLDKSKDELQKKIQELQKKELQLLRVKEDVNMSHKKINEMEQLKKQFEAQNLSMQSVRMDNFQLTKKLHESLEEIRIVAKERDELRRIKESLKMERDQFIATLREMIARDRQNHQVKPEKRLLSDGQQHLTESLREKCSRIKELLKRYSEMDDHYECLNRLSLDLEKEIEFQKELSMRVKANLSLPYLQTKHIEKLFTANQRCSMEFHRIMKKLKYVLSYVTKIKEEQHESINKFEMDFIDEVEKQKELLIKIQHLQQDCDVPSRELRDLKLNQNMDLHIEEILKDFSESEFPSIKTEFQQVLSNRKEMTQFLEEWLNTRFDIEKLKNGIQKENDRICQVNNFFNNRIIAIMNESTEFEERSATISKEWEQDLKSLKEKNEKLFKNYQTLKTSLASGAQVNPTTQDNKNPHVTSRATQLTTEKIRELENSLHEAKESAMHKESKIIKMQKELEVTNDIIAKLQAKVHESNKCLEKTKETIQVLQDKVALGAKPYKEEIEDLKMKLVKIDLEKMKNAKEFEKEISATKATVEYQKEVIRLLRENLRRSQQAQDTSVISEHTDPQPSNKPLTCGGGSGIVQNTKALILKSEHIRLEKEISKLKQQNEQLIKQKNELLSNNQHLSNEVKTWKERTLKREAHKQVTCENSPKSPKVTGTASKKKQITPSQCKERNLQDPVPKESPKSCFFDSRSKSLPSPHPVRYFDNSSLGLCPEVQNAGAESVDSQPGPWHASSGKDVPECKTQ
FLAG-GFP-CENP-E (1799-2701), C-terminal region of CENP-E: residues 1799-2701 of Q02224
CENP-E-MYC (1-859) T422A, N-terminal region of CENP-E with the T422A mutation (Q02224, form named): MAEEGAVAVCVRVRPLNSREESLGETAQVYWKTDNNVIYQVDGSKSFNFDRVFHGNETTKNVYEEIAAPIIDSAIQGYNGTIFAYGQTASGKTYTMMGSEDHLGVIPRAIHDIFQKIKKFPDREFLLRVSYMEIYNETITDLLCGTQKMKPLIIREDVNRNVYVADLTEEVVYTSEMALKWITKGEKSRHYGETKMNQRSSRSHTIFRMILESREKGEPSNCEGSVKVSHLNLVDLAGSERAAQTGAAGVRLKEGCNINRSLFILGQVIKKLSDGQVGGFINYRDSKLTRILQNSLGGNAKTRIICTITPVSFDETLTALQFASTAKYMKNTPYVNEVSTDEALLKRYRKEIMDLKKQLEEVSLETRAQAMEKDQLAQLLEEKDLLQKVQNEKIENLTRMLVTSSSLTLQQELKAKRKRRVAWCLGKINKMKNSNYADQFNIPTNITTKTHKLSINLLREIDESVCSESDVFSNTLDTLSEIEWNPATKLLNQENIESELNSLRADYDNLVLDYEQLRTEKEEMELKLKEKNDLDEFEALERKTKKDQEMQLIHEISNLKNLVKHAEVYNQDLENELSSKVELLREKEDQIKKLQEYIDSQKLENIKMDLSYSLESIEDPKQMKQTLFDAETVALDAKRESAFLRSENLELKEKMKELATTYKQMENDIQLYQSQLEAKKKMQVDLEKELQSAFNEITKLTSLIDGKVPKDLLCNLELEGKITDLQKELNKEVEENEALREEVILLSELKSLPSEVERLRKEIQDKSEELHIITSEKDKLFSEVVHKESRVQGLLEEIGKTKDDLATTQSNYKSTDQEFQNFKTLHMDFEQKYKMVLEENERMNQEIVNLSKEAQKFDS
UniProt Q9Y6G9: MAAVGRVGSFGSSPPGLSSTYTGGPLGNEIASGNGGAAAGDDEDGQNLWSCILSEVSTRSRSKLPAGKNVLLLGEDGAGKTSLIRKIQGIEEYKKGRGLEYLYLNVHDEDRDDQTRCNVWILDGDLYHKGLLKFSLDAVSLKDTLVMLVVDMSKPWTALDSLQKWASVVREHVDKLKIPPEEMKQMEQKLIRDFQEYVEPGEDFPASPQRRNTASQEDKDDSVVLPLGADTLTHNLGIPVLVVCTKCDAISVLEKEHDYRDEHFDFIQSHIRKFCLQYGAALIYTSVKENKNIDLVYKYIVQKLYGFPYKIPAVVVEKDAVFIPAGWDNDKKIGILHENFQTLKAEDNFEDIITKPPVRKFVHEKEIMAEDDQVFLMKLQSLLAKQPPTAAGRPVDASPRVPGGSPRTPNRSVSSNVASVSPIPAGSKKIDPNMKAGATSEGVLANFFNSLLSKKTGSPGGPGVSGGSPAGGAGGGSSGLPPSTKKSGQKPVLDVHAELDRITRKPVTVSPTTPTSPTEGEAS

Columns and labels:
[1] = biological target: FLAG-GFP-CENP-E (1799-2701), C-terminal region of CENP-E (UniProt Q02224); experiment: co-IP; the C-terminal domain FLAG-GFP-CENP-E-C immunoprecipitated (antibody on Dynabeads Protein G) from HEK 293 T cells co-transfected with GFP-CENP-E-N-MYC constructs for 48 h, 3.3 μM nocodazole 16 h; Triton X-100 buffer (25 mM HEPES, 100 mM NaCl, 1 mM EDTA, 10% glycerol, 1% Triton X-100), sonication
[2] = biological target: GFP-CENP-E WT (full-length) (UniProt Q02224); experiment: co-IP; full-length GFP-CENP-E immunoprecipitated (antibody on Dynabeads Protein G) from HEK 293 T cells transfected for 48 h, with control or CENP-E 3'UTR siRNA, 3.3 μM nocodazole 16 h; detergent-free lysis buffer (20 mM HEPES, 10 mM KCl, 1 mM MgCl2, 1 mM EDTA, 1 mM EGTA), freeze/thaw and …; blots for p150 and LIC

CENP-E-MYC (1-859) WT, N-terminal region of CENP-E (from UniProt Q02224 1-859) (domain or fragment)
binding [1]: binds

dynein light intermediate chain 1 (LIC1) (from UniProt Q9Y6G9 1-523)
binding [2]: binds

dynactin subunit p150/Glued (from UniProt Q14203-1 1-1278)
binding [2]: binds

CENP-E-MYC (1-859) T422A, N-terminal region of CENP-E with the T422A mutation (from UniProt Q02224 1-859) (domain or fragment)
binding [1]: binds
